Assay [1] has as its target SMARCC1 (human) (UniProt Q92922). In words: cross-linking; cross-linking mass spectrometry (XL-MS) of the ncBAF complex, used to confirm the built and AlphaFold3-predicted models; conditions not shown; both purified.
The target in assay [2] is SMARCD1 (human) (UniProt Q96GM5). The assay is described as above.

Results are given in words; binding and its absence hold for the method and conditions named. Some results given as binding are weak or reduced against the parent protein; the word gives no strength.

On to GLTSCR1L (from UniProt Q6AI39 1-1079), for which the binding entry in assay [1] and in assay [2] was “binds” throughout.

The values above are taken from paper PMC12708618.
